Literature values as cited in patent US20060270650A1, “Combination therapy for the treatment of obesity” (priority 2005, published 2006).
Some entries share one result that the patent states for a list of compounds. Some compounds share one range, which may span the group rather than tell each member.

Question: For `CCCCCCCCCCC[C@@H](C[C@@H]1OC(=O)[C@H]1CCCCCC)OC(=O)[C@H](CC(C)C)NC=O` [orlistat], which “weight loss of body weight for drug compared to placebo” value (monotherapy, drug compared to placebo) is on record?
Answer: 5%-10%

Question: What about the reduce body weight (over a 6 month or a 1 year period) of the same compound?
Answer: less than 10%
